The other results are listed elsewhere or left out. The calls rarely recur for the same compound in another form.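 Kinases were expressed as nanoluciferase fusions in K562 cells and luminescence was read every 4 h between 2 and 18 h as percent of control, DMSO set to 100% and a positive control to 0%. A time point counts as decreased when the signal drops significantly (2 sigma). The hit call is the authors' own, does not follow from the count of time points alone, and its rule is not shown.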
Assays:
Test in all cases: number of time points (of 5) at which kinase-Nluc abundance scored as decreased, DMSO-normalised (count); higher = more persistent destabilization
Settings in all cases: K562; 2-18 h
FLT3 = FLT3 (UniProt P36888)
FYN = FYN (UniProt P06241)
GSK3A = GSK3A (UniProt P49840)
HER2 = HER2 (UniProt P04626)
INSRR = INSRR (UniProt P14616)
IRAK3 = IRAK3 (UniProt Q9Y616)
JAK1 = JAK1 (UniProt P23458)
LCK = LCK (UniProt P06239)
LIMK1 = LIMK1 (UniProt P53667)
LIMK2 = LIMK2 (UniProt P53671)

Sequences of proteins named here, by UniProt entry; tags and fusion partners are left off. A change or cut given only in a name is not applied to a line headed by its entry.
UniProt P36888, whole entry: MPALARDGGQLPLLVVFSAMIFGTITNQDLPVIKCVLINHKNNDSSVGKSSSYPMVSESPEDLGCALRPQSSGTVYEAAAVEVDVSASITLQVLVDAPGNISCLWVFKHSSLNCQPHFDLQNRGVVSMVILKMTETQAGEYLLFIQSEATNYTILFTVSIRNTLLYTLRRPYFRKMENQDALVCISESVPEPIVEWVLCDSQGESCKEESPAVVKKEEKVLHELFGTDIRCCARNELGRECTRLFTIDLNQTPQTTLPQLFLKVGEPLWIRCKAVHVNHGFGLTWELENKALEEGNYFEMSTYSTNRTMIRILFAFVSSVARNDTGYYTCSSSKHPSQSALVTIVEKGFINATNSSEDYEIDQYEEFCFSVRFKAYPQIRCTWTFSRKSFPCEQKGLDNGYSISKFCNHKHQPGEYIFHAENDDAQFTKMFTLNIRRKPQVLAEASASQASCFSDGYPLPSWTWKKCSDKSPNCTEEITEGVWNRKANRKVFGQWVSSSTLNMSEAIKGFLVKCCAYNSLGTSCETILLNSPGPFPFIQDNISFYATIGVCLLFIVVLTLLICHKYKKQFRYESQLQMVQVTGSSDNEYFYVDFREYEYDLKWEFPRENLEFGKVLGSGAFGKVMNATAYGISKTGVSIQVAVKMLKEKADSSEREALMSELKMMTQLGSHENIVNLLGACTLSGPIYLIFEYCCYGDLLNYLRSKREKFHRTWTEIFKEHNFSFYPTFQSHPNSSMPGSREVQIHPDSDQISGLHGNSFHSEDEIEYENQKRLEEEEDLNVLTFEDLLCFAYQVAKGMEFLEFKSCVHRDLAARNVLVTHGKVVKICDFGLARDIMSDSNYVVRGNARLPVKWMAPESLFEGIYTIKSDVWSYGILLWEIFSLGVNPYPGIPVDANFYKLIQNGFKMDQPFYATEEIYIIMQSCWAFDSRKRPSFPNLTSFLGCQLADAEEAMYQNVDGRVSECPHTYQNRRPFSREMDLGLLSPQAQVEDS
UniProt P49840: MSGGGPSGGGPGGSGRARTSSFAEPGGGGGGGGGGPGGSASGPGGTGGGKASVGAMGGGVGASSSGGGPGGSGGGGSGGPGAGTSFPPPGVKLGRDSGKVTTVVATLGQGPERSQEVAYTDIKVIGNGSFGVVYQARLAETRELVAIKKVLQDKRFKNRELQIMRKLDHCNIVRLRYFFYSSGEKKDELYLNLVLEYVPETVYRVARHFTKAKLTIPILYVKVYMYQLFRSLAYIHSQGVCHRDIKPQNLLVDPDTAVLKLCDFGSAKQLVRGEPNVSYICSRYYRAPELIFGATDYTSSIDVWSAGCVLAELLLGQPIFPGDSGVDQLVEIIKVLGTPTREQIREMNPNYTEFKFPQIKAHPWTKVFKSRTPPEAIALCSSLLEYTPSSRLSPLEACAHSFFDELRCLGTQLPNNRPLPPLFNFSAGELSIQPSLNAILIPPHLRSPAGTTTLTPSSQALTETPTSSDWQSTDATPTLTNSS
UniProt P14616: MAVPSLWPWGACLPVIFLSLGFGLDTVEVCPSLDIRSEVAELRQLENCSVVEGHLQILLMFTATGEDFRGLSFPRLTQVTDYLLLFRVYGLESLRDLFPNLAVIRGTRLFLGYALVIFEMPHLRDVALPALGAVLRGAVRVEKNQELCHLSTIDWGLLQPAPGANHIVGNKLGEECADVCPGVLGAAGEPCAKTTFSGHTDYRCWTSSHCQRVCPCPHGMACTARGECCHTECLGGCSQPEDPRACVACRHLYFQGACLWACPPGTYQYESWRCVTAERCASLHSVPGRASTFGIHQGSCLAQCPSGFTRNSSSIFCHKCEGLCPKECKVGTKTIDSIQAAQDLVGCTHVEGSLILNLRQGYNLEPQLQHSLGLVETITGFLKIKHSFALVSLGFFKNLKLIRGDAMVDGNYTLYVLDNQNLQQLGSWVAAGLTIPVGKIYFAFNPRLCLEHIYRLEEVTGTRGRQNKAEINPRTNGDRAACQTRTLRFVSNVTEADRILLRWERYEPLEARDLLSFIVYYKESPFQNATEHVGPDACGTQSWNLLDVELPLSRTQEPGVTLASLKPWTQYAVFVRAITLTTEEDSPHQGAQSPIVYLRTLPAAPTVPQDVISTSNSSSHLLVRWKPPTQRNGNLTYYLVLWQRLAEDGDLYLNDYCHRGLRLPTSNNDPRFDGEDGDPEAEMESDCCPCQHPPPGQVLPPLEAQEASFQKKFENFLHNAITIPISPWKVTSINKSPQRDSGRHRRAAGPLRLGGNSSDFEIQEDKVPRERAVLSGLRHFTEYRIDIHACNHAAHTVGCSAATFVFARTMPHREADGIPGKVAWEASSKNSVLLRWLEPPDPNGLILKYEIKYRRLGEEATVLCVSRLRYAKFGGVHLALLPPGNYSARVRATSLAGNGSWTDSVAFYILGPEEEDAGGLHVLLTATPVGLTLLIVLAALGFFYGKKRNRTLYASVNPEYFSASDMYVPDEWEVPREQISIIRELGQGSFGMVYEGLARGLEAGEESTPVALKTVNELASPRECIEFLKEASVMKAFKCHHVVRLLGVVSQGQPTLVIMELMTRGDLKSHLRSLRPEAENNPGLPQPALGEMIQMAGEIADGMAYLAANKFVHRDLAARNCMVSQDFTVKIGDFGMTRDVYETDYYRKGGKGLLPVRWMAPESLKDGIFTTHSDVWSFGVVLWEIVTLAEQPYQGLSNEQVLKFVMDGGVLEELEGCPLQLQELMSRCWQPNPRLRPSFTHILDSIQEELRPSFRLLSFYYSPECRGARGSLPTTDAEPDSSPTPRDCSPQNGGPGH
UniProt Q9Y616: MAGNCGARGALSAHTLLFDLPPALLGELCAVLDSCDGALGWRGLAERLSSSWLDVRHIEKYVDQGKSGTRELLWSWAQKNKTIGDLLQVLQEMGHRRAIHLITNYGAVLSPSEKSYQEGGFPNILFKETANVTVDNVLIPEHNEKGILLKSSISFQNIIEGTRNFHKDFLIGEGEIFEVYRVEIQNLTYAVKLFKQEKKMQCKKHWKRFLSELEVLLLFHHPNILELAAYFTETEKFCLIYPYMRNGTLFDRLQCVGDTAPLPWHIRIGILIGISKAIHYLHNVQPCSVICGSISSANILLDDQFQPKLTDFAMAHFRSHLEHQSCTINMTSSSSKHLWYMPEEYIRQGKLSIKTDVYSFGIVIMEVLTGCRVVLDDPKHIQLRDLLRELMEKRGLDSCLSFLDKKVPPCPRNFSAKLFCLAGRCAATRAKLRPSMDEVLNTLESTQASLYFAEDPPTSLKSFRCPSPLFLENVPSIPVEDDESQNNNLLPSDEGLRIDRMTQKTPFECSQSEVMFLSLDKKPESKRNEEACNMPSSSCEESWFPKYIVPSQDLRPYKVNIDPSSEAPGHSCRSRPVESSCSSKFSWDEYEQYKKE
UniProt P23458: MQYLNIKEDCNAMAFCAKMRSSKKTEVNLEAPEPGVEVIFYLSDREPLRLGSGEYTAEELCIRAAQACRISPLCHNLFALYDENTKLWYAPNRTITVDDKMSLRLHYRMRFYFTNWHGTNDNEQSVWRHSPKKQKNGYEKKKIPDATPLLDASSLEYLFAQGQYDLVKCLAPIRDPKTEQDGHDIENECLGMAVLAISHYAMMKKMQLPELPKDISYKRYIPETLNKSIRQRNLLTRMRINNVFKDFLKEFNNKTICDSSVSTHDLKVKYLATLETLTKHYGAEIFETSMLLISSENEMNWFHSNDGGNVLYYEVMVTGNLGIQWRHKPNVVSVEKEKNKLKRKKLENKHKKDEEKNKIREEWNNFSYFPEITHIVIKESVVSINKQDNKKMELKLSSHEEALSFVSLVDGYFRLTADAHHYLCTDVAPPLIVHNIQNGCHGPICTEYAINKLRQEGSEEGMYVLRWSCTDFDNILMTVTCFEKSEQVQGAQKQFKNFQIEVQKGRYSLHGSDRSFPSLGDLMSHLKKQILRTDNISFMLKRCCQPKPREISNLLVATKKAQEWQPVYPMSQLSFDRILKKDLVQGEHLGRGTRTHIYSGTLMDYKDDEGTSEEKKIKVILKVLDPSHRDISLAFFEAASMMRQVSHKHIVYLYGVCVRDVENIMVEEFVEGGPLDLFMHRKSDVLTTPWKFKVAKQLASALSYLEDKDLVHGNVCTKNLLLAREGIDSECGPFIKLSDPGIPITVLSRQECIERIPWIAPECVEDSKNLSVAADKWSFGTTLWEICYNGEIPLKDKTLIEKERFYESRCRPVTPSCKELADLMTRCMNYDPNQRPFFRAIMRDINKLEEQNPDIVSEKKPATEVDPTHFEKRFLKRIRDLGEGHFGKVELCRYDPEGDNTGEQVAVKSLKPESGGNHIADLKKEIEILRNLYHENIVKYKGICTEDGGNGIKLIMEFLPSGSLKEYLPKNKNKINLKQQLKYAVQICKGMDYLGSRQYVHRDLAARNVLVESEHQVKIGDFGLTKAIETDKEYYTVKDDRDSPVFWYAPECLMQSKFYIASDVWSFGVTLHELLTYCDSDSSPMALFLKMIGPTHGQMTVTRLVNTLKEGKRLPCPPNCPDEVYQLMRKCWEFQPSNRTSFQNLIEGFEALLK
UniProt P06239: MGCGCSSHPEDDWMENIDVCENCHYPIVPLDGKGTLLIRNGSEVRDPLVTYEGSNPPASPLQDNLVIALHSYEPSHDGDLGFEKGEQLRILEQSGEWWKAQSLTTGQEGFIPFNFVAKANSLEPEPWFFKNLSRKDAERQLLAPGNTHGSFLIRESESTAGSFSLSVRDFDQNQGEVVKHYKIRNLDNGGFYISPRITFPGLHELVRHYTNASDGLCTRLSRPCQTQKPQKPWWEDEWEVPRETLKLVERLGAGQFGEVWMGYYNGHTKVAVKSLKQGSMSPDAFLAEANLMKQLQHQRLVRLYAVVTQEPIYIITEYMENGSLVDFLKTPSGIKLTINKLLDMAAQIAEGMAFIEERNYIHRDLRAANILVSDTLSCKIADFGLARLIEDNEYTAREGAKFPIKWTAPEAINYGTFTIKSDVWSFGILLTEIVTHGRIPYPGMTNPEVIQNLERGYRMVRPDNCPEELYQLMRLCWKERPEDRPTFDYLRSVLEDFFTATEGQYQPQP
UniProt P53667: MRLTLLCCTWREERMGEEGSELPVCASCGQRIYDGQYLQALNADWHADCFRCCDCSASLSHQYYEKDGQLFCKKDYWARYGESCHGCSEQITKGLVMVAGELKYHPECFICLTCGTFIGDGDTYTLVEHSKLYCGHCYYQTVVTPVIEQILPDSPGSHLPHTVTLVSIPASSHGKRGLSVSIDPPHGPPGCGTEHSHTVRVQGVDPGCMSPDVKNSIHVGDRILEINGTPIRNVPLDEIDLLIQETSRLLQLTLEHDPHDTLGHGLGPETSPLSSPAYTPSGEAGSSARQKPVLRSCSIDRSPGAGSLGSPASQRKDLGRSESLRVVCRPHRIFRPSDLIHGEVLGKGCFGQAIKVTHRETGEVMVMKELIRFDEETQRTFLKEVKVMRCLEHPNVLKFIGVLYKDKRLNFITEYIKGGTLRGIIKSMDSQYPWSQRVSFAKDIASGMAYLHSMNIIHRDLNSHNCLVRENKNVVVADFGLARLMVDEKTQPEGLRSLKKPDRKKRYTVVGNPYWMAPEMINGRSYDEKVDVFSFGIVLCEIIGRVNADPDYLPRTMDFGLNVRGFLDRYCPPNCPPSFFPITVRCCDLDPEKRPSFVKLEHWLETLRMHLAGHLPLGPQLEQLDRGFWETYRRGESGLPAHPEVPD
UniProt P53671: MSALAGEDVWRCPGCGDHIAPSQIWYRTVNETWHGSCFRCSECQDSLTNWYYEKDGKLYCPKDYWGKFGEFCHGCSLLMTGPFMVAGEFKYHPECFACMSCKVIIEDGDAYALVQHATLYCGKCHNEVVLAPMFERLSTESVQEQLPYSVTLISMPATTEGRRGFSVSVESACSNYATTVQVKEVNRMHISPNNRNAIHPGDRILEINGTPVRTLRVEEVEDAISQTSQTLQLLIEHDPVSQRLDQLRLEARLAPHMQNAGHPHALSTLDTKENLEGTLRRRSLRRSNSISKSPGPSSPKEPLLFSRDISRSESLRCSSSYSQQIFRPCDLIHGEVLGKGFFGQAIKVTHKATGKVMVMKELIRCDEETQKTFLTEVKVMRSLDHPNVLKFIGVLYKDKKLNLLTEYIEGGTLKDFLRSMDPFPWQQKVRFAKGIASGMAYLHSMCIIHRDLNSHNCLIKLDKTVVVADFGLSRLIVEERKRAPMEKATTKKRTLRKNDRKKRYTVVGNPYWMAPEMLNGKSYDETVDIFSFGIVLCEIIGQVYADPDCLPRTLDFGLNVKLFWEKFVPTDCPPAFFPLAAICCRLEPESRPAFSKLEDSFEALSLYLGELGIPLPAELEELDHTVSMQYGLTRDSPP

Measured: number of time points

c1ccc(-c2nn3c(c2-c2ccnc4cc(OCCN5CCOCC5)ccc24)CCC3)nc1 (10 µM)
0: all assays above

C[C@@H]1CCc2ncc(F)cc2[C@H]2CCCN2c2ccn3ncc(c3n2)C(=O)N1 [Selitrectinib] (10 µM)
0: all assays above

Cc1cc2cc(Oc3ccnc(Nc4cccc(CS(=O)(=O)NCCN(C)C)c4)n3)ccc2[nH]1 [Sulfatinib] (10 µM)
3: IRAK3 | LIMK1
2: INSRR
0: all other assays above

Nc1n[nH]c2cc(-c3ccc(=O)n(Cc4cccc(Cl)c4)c3)ccc12 (10 µM)
0: all assays above

O[C@H]1CC[C@H](Nc2ncc3nc(Nc4c(F)cc(F)cc4F)n([C@H]4CCOC4)c3n2)CC1 [Tanzisertib] (10 µM)
0: all assays above

CC(C)N(C)c1nc2cc(C(=O)O)ccc2nc1-c1ccc(F)cc1 (10 µM)
0: all assays above

O=C(CCCCCn1cc(Nc2ncc(Cl)c(Nc3ccc(Cl)cc3)n2)cn1)NO (2.5 µM)
0: all assays above

CC(C)n1cnc2c(Nc3cccc(Cl)c3)nc(NCCO)nc21 (10 µM)
1: FYN
0: all other assays above

CC[C@@H](N)CNc1ccnc(-c2cc(-c3cnn(C)c3)ccc2O)n1 (2.5 µM)
1: IRAK3
4: FLT3
0: all other assays above

COc1cc(N2CCC(N(C)C)CC2)ccc1Nc1ncc(Cl)c(Nc2ccccc2P(C)(C)=O)n1 (2.5 µM)
2: IRAK3
1: FYN
3: INSRR
0: all other assays above

COc1ccc(CN2C3CC2CN(c2ccc(-c4cc(OCC(C)(C)O)cn5ncc(C#N)c45)cn2)C3)cn1 [Selpercatinib] (10 µM)
0: all assays above

Oc1ccccc1C(=S)N1CCCC1 (10 µM)
0: all assays above

CNC(=O)c1ccc(-c2cnc3cnc(-c4ccccc4)cn23)cc1 (10 µM)
0: all assays above

O=Nc1c(-c2c(O)[nH]c3ccccc23)[nH]c2ccccc12 [Indirubin-3'-monoxime] (2.5 µM)
1: IRAK3
0: all other assays above

C=CC(=O)N1CCC(Oc2cc3c(Nc4ccc(Cl)c(Cl)c4F)ncnc3cc2OC)CC1 [Poziotinib] (2.5 µM)
2: HER2
0: all other assays above

C[C@@H]1O[C@@H](OC[C@H]2O[C@@H](Oc3cc(O)c4c(c3)O[C@H](c3ccc(O)cc3)CC4=O)[C@H](O)[C@@H](O)[C@@H]2O)[C@H](O)[C@H](O)[C@H]1O [Narirutin] (10 µM)
0: all assays above

CC(CCc1ccccn1)(CCc1ccccn1)C(=O)c1ccccc1 (10 µM)
0: all assays above

COc1ccc2c(Oc3ccc(NC(=O)c4c(C)n(CC(C)(C)O)n(-c5ccccc5)c4=O)cc3F)ccnc2c1 (2.5 µM)
2: INSRR
0: all other assays above

CCn1nc(C2CCN(C(=O)CCO)CC2)nc1-c1cnc(N)c(-c2nnc(C(C)(C)C)o2)n1 (10 µM)
0: all assays above

CCC(C)(C)C(=O)N(O)Cc1ccccc1 (10 µM)
0: all assays above

CN(C)Cc1cccc(N=C(c2ccccc2)c2c(O)[nH]c3cc(C(N)=O)ccc23)c1 (10 µM)
0: all assays above

O=C(Nc1ccc(Cl)cc1)C1CCCN(C(=O)c2cccc(-c3ccco3)c2)C1 (stereo not given) (2.5 µM)
0: all assays above

Taken from the results shown (three entries):
COc1ccc2c(Oc3ccc(NC(=O)c4c(C)n(CC(C)(C)O)n(-c5ccccc5)c4=O)cc3F)ccnc2c1 (2.5 µM)
2: INSRR
0: all other assays above

CCn1nc(C2CCN(C(=O)CCO)CC2)nc1-c1cnc(N)c(-c2nnc(C(C)(C)C)o2)n1 (10 µM)
0: all assays above

CCC(C)(C)C(=O)N(O)Cc1ccccc1 (10 µM)
0: all assays above

Carrying on.

CC(C)(C)Cn1c(N)nc2ccc(-c3[nH]c(C(C)(C)C)nc3-c3ccc(F)cc3)nc21 [Ralimetinib dimesylate] (2.5 µM)
0: all assays above

c1cc(-c2cnn3cc(-c4ccc(N5CCNCC5)cc4)cnc23)c2cccnc2c1 (2.5 µM)
1: HER2
0: all other assays above

CN(C)C(=O)c1ccc(S(=O)(=O)c2ccc(NC(=O)[C@@](C)(O)C(F)(F)F)c(Cl)c2)cc1 (10 µM)
0: all assays above

O=C1NC(=O)C(=Cc2ccc3c(c2)OCO3)S1 (10 µM)
0: all assays above

c1ccc(-c2oc3ncnc(NC[C@@H]4CCCO4)c3c2-c2ccccc2)cc1 (2.5 µM)
0: all assays above

COc1c(O)cc2oc3cc(O)c(CC=C(C)C)c(O)c3c(=O)c2c1CCC(C)(C)O [Garcinone D] (2.5 µM)
0: all assays above

CCN1/C(=C/C(C)=O)Sc2ccc(OC)cc21 (10 µM)
4: INSRR
1: JAK1
0: all other assays above

Nc1cccc(S(=O)(=O)N2CCCN(S(=O)(=O)c3ccc4c(c3)OCCO4)CC2)c1 (10 µM)
0: all assays above

CCOc1nc(Nc2ccc(C(=O)N3CCOCC3)cc2OC)nc2[nH]ccc12 [LRRK2 inhibitor 1] (2.5 µM)
0: all assays above

CC[C@@H]1[C@H](F)C(=O)N[C@@H]1COc1nccc2cc(C(N)=O)c(OC)cc12 (10 µM)
0: all assays above

CCc1cccc(CC)c1NC(=O)c1nn(C)c2c1CCc1cnc(Nc3ccc(C(=O)NC4CCN(C)CC4)cc3OC(F)(F)F)nc1-2 (2 µM)
0: all assays above

C=CS(=O)(=O)c1ccc(Nc2nc(OCC3CCCCC3)c3[nH]cnc3n2)cc1 (2.5 µM)
3: IRAK3
0: all other assays above

CC1(COc2ccc3c(c2)ncn3-c2ccc3cccc(N4CCC(N)CC4)c3n2)COC1 [Crenolanib] (2.5 µM)
2: INSRR
3: FYN | IRAK3
0: all other assays above

From the supplement of paper PMC12823440, “Inhibitors supercharge kinase turnover through native proteolytic circuits” (Nature, 2025)
